In patent US7893023B2, “Prodrugs activated by plasmin and their use in cancer chemotherapy” (priority 2000, dated 2011):
At least one peptide structure holds a part that was inferred or is arguable (an end, a ring closure or a residue). Square brackets hold non-standard residues; d marks the D form. Peptide text beside a SMILES is read from it. * marks the point of attachment. Doxorubicin(3'-N) = COc1cccc2c1C(=O)c1c(O)c3c(c(O)c1C2=O)C[C@@](O)(C(=O)CO)C[C@@H]3O[C@H]1C[C@H](N*)[C@H](O)[C@H](C)O1

What was measured:
[1] = tested on: LS174T colon tumor xenografts; test: Chemotherapeutic activity in the LS174T human colon tumor xenograft model; type: in vivo, mice
Source text: Animals were kept under pathogen-free conditions with food and water supplied ad libitum, and kept for about one week before implantation of the tumors. Fragments (˜2 mm) of tumors grown in nude mice were implanted subcutaneously in both flanks of the mice. Tumors were generally allowed to grow to attain a diameter of 5-6 mm each (approximately two weeks).
The mice weighed 20.0-25.0 g at the beginning of the study. They were selected and assigned to groups in order to have equally distributed tumor volumes in the different groups. In each group, mice were labeled individually. Treatments were assigned randomly to those groups.
All dosing solutions were prepared the day of injection by dissolution in water ( 1/10 of the expected final volume) and further dilution with 0.9% (w/v) NaCl. The concentration of these solutions was checked (A475 nm determination) after sterilization by filtration (0.22 μm) and adjusted to the final required value using sterile 0.9% (w/v) NaCl).
Treatments were administered by the i.p. route. The mice received a constant volume (10 μl/g) of either saline (control group) or drug. Mortality and clinical signs were recorded up to 4 hours post-treatment on dosing days, and daily thereafter. Their behavior was equally noted. Individual body weights were generally recorded daily until day 14 and at least twice a week thereafter.
Tumor growth was monitored by two-dimensional measurements using calipers and a precision of 0.5 mm. Tumor volumes were calculated according to the following formula: Vt=[length×(width)^2]/2
Median relative tumor volumes (RTV) were calculated as tumor volumes determined at individual days divided by tumor volumes on day 0. For treated groups, growth inhibition was estimated as the percentage ratio of median RTV of treated (T) mice versus controls (C) on each day of tumor treatment. […]
The minimal T/C value (%) for each treatment was used as a parameter for maximum efficacy. Duration of growth inhibition was assessed by considering growth delays (T-C) for one (200%) and two (400%) doublings of the median RTV). […]

COc1cccc2c1C(=O)c1c(O)c3c(c(O)c1C2=O)C[C@@](O)(C(=O)CO)C[C@@H]3O[C@H]1C[C@H](NC(=O)[C@H](CC(C)C)NC(=O)[C@H](CC(C)C)NC(=O)[C@H](CCCCN)NC(=O)[C@H](CC(C)C)NC(=O)[C@@H](C)N)[C@H](O)[C@H](C)O1 [Compound II, DOX, D-Ala-Leu-Lys-Leu-Leu-DOX] (H-[dA]LKLL-{Doxorubicin(3'-N)})
median RTV value reduction ([1]; 25.9 μmol/kg, at 22 days): 50%
specific growth delay (one doubling of tumor size) ([1]; 34.5 μmol/kg): 1.7
minimal T/C ratio ([1]; 34.5 μmol/kg, reached on day 33): 23%
lung surface occupied by B16-B16 metastases (B16-B16 murine melanoma; 34.5 μmol/kg i.p. days 1 and 3, day 14, P<0.01): 8.2±1.8%
number of lung metastases per animal (B16-B16 murine melanoma; 34.5 and 69.0 μmol/kg groups, no significant difference): approximately 800 per animal
